Test results: PubChem BioAssay AID2685 (National Center for Advancing Translational Sciences (NCATS), 2010)
Screen size: about 320,000 compounds; about 2,100 (0.66%) were called active. Inconclusive means that the source gave no clear call. Such entries were picked first, then a sample of the others. Calls come from the whole dose curve; as a rule, active = well fitted inhibition curve with a large enough effect in the signal ratio, with a control signal flat (not every such curve was filed as active); inconclusive = small, poorly fitted or top-dose-only effect, or effect the other way, or a change in a side signal; inactive = flat fitted curve, though single readings scatter; the % refers to the signal ratio. Where the call is inconclusive, the potency comes from a doubtful curve fit.

Experiment: qHTS Assay for Lipid Storage Modulators in Drosophila S3 Cells
Conditions: BODIPY lipid droplet fluorescence, 18-24 h, cells fed with added oleic acid; lipid storage change, negative = inhibition: at 46.1 µM (top of the series) unless noted
Outline: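 Drosophila S3 cells loaded with oleic acid (400 uM, as added) and compounds at several concentrations; lipid droplets imaged by 488-nm laser-scanning cytometry, 500–530 nm intensity and object ratio to cell channel. Percent activity normalized to 20 uM Triacsin C.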
% is set by controls: 0 for no effect and ±100 for the full control effect; potency is the fitted concentration of half-maximal effect.

| Compound | lipid storage change, negative = inhibition | Potency |
| --- | --- | --- |
| CC1=NN(c2ccc(Cl)cc2)C(=O)/C1=C\c1cccn1-c1ccc(S(N)(=O)=O)cc1 | inconclusive: 25.1% |  |
| Cn1cccc2[nH]c(=O)nc1-2 | inactive: -8.1% |  |
| CC(C)CN1C(=O)c2ccc(C(=O)Nc3nccs3)cc2C1=O |  | inconclusive: 0.651 µM [activator, single point] |
| CC(C)S(=O)(=O)C1=NSC2=NC(=O)/C(=C\c3ccc(-c4cccc(C(=O)O)c4)o3)C(=N)N21 | inconclusive: -5.33% |  |
| CSc1ccc(/C=C/C(=O)OCC(=O)NC2CC2)cc1 |  | inconclusive: 0.411 µM [activator, partial curve, poor fit] |
| Cc1ccc(S(=O)(=O)N2CCCC2)cc1C(=O)NCC(C)(C)N1CCOCC1 | inconclusive: -10.4% |  |
| COc1ccc(O)c(-c2cc(C(F)(F)C(F)F)nc(-c3ccccc3)n2)c1 | inconclusive: -0.557% |  |
| Cc1ccc(NC(=O)Cc2ccc(Cl)c(Cl)c2)cc1S(=O)(=O)N(C)C | inconclusive: 0.847% |  |
| COc1ccc2c(C(=O)CN3CCC(C)CC3)c[nH]c2c1 | inconclusive: 0.967% |  |
| O=C(CCN1CCCCO1)N1CCCC(Nc2cccc(F)c2)C1 (stereo not given) | inconclusive: -2.31% |  |
| O=C(CN(c1ccc2c(c1)OCCO2)S(=O)(=O)c1ccccc1)Nc1ccc2c(c1)OCO2 |  | inconclusive: 0.651 µM [activator, single point] |
| C=CCn1c(SCC(=O)Nc2ccc3c(c2)CCC3)nnc1-c1cccs1 | inconclusive: -31.9% |  |
| O=C(Cn1c(=O)oc2cc(S(=O)(=O)NCc3ccccc3)ccc21)NCc1ccco1 | inconclusive: 6.75% |  |
| O=C(CC1CCCC1)Nc1cccc(Br)c1 | inconclusive: -0.391% |  |
| CN(CCc1ccccn1)C(=O)CCNC(=O)Cn1cnc2ccccc2c1=O | inconclusive: -36.5% |  |
| CCC(CC)C(=O)NCc1ccc(Cl)cc1 |  | inconclusive: 0.92 µM [cytotoxic, full curve, poor fit] |
| Cc1ccc(CNC(=O)CNC(=O)c2c(C)nn(C)c2Cl)cc1 | inconclusive: 0.553% |  |
| CCOc1ccc(-c2c(C(=O)N/N=C/c3ccc(C)o3)nnn2-c2nonc2N)cc1 | inconclusive: 23.5% |  |
| COc1ccc(N2CCN(C(=O)c3ccc(CNc4c(N5CCOCC5)c(=O)c4=O)cc3)CC2)cc1 | inconclusive: 17.2% |  |
| COc1ccc(N(CC(=O)NCc2ccc(F)cc2)C(=O)CCC(=O)Nc2nccs2)cc1 | inconclusive: 74.1% |  |
| Cc1ccc2nc(NC3=NCN(CCc4ccccc4)CN3)nc(C)c2c1 | inconclusive: -48.3% |  |
| CC(C)CC1Nc2ncnc(N3CCCCC3)c2N(Cc2ccc(Br)cc2)C1=O (stereo not given) | inconclusive: 18.7% |  |
| O=C(OCn1nnc2ccccc2c1=O)c1ccc(N2CCOCC2)c([N+](=O)[O-])c1 |  | inconclusive: 11.6 µM [activator, single point] |
| Cc1ccc(S(=O)(=O)N2CCC(=O)N(C(COCc3ccccc3)C(C)C)CC2)cc1 (stereo not given) | inconclusive: 13.9% |  |
| CCCCCCCOc1ccc(C(=O)Nc2cccnc2)cc1 |  | inconclusive: 18.4 µM [falling, single point] |

| Compound | lipid storage change, negative = inhibition | Potency |
| --- | --- | --- |
| O=C(NCCCN1CCCCC1)c1ccc(CS(=O)c2ccc(Cl)cc2)o1 (stereo not given) | inconclusive: -100% |  |
| Cc1ccc(NC(=S)N2CCCCCC2)c(C)c1 |  | inconclusive: 6.51 µM [activator, single point] |
| CCn1c(CNC(=O)COc2ccc(C(C)C)cc2)nnc1SCC(=O)Nc1ccccc1F |  | inconclusive: 6.51 µM [falling, single point] |
| CCOC(=O)C1CCCN(C(=O)c2ccc3c(=O)n(CCOC)c(=S)[nH]c3c2)C1 (stereo not given) |  | inconclusive: 29.1 µM [falling, single point] |
| CCOC(=O)C(C(=O)NCc1ccc(F)cc1)c1ncc(C(F)(F)F)cc1Cl (stereo not given) |  | inconclusive: 14.6 µM [activator, partial curve] |
| CCCOC(=O)c1ccc(OC(=O)c2ccco2)cc1 |  | inconclusive: 4.11 µM [falling, full curve, poor fit] |
| COC(=O)/N=C/c1c(NCc2ccccc2)nc2c(C)cccn2c1=O |  | inconclusive: 29.1 µM [rising, single point] |
| CCOc1ccc(NC(=O)CN2CCN(CC(=O)Nc3ccc(Cl)c(C(F)(F)F)c3)CC2)cc1 | inconclusive: 7.01% |  |
| O=C(COC(=O)C1CCN(c2ccc(C(F)(F)F)cn2)CC1)c1ccc(F)cc1 | inconclusive: 8.56% |  |
| CC(=O)c1cccc(S(=O)(=O)NCCCN2CCOCC2)c1 |  | inconclusive: 0.58 µM [falling, single point] |
| N#Cc1ccc(C2=NC(C(F)(F)F)(C(F)(F)F)c3c(n(Cc4ccco4)c(=O)[nH]c3=O)N2)cc1 | inconclusive: -13.3% |  |
| CCCCNC(=O)C1(O)c2cc(Br)ccc2NC(=O)N1c1cccc(OC)c1 (stereo not given) | inconclusive: 5.12% |  |
| COc1ccc(C2/C(=C(\O)c3ccc4c(c3)OCCO4)C(=O)C(=O)N2CCCn2ccnc2)cc1 (stereo not given) |  | inconclusive: 0.651 µM [falling, partial curve, poor fit] |
| COc1ccc(C2C3=C(Nc4ncnn42)c2ccccc2CCC3)cc1 (stereo not given) |  | inconclusive: 1.16 µM [activator, full curve] |
| CC1=C(C(=O)Nc2ccccn2)C(c2ccc(N(C)C)cc2)n2ncnc2N1 (stereo not given) | inconclusive: -16.8% |  |
| CCN(CC)C(=O)C1CCN(S(=O)(=O)c2ccc(C3CNC(=O)C3)cc2)CC1 (stereo not given) | inconclusive: 19.4% |  |
| COc1ccc(-c2nc3c4c(ncn3n2)-c2ccccc2CC42CCCC2)cc1 | inconclusive: 8.31% |  |
| O=C(Nc1ccccc1)Nc1ccccn1 |  | inconclusive: 10.3 µM [activator, partial curve, poor fit] |
| CCCCc1nnc(NC(=O)c2ccc3[nH]c(=O)c(=O)[nH]c3c2)s1 |  | inconclusive: 18.4 µM [activator, single point] |
| CC(C1CC2CCC1C2)n1c(COc2ccccc2F)nnc1SCC(N)=O (stereo not given) | inconclusive: -71.3% |  |
| CN(c1ccccc1)S(=O)(=O)c1ccc(NC(=O)c2ccc(-c3ccccc3)cc2)cc1 | inconclusive: -23% |  |
| O=C(Nc1nnc(C2CC2)s1)c1cc2c(s1)CCCCCC2 | inconclusive: 7.34% |  |
| CCN(CC)S(=O)(=O)c1ccc(N2CCCC2)c(NS(=O)(=O)c2ccc(OC)cc2)c1 | inactive: 1.12% |  |
| COc1ccc(C(=O)N2CCCC(Nc3ccc(C(C)C)cc3)C2)c(OC)n1 (stereo not given) | inconclusive: -7.07% |  |
| c1ccc(-n2ncc3c(NCc4cccnc4)ncnc32)cc1 |  | inconclusive: 11.6 µM [activator, partial curve, poor fit] |

Shown tab-delimited: part of the list above.
Compound	lipid storage change, negative = inhibition	Potency
CCN(CC)C(=O)C1CCN(S(=O)(=O)c2ccc(C3CNC(=O)C3)cc2)CC1 (stereo not given)	inconclusive: 19.4%	
COc1ccc(-c2nc3c4c(ncn3n2)-c2ccccc2CC42CCCC2)cc1	inconclusive: 8.31%	
O=C(Nc1ccccc1)Nc1ccccn1		inconclusive: 10.3 µM [activator, partial curve, poor fit]

Later entries

| Compound | lipid storage change, negative = inhibition | Potency |
| --- | --- | --- |
| Cc1ccc(C)c(OCCCCCn2ccnc2)c1 | inconclusive: 25.4% |  |
| CC(C)(C)C(=O)C[n+]1ccccc1 | inconclusive: -24.9% [at 9.22 µM] |  |
| O=C(O)C1CCCCC1C(=O)NCCc1ccc(F)cc1 (stereo not given) | inconclusive: -4.06% |  |
| CC(C)CNC(=S)NC1CC2CCC(C1)N2Cc1ccccc1 (stereo not given) | inconclusive: 34% |  |
| Nc1nc(-c2ccc3c(c2)CCC(=O)N3)cs1 | inconclusive: -5.98% |  |
| Fc1ccc(-c2nnc(CSc3nnc4ccccn34)o2)cc1 | inconclusive: 1.26% |  |
| CN(CC(=O)O/N=C(\N)c1ccc([N+](=O)[O-])cc1)S(=O)(=O)c1ccc2ccccc2c1 | inconclusive: 31.6% |  |
| CC(=O)/C(=C/N(C)C)C(=O)Nc1ccc(Cl)cc1Cl | inconclusive: -15.2% |  |
| C=CCn1c(=NC(=O)C2CCCCC2)sc2cc(NC(C)=O)ccc21 |  | inconclusive: 1.64 µM [activator, full curve, poor fit] |
| Cc1ccc(NC(=O)/C=C/c2ccc([N+](=O)[O-])s2)cc1 |  | inconclusive: 10.3 µM [falling, partial curve, poor fit] |
| COc1cccc(NC(=O)C2CCN(S(=O)(=O)c3ccc4c(c3)NC(=O)C(C)S4)CC2)c1 (stereo not given) |  | inconclusive: 6.51 µM [activator, single point] |
| CCOC(=O)C1=C(C)NC(C)=C(C(=O)OCC)C1C(=O)OC1CCOC1=O (stereo not given) | inconclusive: 13.2% |  |
| CCN(CC)S(=O)(=O)c1ccc(OC)c(NC(=O)C(C)Oc2ccc3c(C)cc(=O)oc3c2)c1 (stereo not given) | inconclusive: 5.55% |  |
| Fc1ccc(-c2cc(C(F)(F)F)nc(NCc3cccs3)n2)cc1 | inactive: 11.1% |  |
| CCc1nnc2n1N=C(c1ccc(-c3cc(Cl)ccc3Cl)o1)CS2 | inconclusive: 12.5% [at 9.22 µM] |  |
| Cc1cccc(C(=O)OC(C)C(=O)NCC2CCCCC2)c1O (stereo not given) | inconclusive: -19.7% |  |
| CC(C)(C)C(=O)OCc1nc(-c2ccc3c(c2)OCCO3)cs1 | inconclusive: -26.8% |  |
| OC(Cn1cnnc1)c1ccccc1 (stereo not given) | inconclusive: -5.2% |  |
| CCOc1ccccc1C(=O)NCC(=O)OCc1c(C)noc1C | inconclusive: 19.8% |  |
| Cc1cccc(C(=O)N2CCN=C2SCc2ccc([N+](=O)[O-])cc2)c1 | inconclusive: 11.1% |  |
| O=C(NCc1ccc(N2CCCC2=O)cc1)c1cn(Cc2ccccc2)nn1 | inconclusive: 48.1% |  |
| CCN(CC)C(=S)Nc1ccc(OC)cc1 | inconclusive: -17.9% |  |
| C#CCOCCOCCOCCNc1nc(N2CCN(C(=O)Cn3cc(CCCCN)nn3)CC2)nc(N2CCN(C(=O)[C@H]([C@@H](C)CC)n3cc(CCCN=C(N)N)nn3)CC2)n1 | inconclusive: 10.9% |  |
| CCN(CC)S(=O)(=O)c1ccc(NC(=S)NC(=O)C2CCC2)cc1 |  | inconclusive: 23.1 µM [activator, single point] |
| CCOC(=O)C(C(=O)OCC)c1c([N+](=O)[O-])c(=O)n2c3c(cccc13)CCC2 | inactive: 12.6% |  |
